Data from doi:10.1101/2022.03.14.484294.
No constants are given. Whether binding was seen depends on the method and setting. In cells and extracts the contact can be indirect. Some entries that bind do so weakly or less than the wild type.

Sequences of proteins named here, by UniProt entry; tags and fusion partners are left off.
UniProt P36404: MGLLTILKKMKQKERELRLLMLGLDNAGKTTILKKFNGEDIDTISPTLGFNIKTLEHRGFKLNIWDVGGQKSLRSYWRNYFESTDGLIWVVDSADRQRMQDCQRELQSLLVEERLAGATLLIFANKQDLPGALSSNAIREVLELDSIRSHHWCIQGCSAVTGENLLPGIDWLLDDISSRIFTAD

Target: FLAG-tagged human PDE6D (human) (UniProt O43924)
Assay: co-IP

ADP-ribosylation factor-like protein 2 (ARL2) (from UniProt P36404 1-184)
binding: binds
